PubChem BioAssay (EPA / NIEHS)
For some assays here: This list holds what a sample rich in hits left over. Results filed as inconclusive are left out. Some compounds were tested as several samples or in several runs, with calls that do not always agree. This is a selection; strong and weak results do not stand in their true shares. Activity calls are given as the source filed them. The calls were made as follows, unless noted: active = hit-call score of the fitted dose curve at least 0.9, where 1 is the maximum; inconclusive = response in the unintended direction; inactive = score below 0.9.

The chains behind the UniProt entries cited, without tags or fusion partners. Where a name states a change or a piece, a line headed by the entry shows the natural chain unless it says otherwise.
UniProt P08253: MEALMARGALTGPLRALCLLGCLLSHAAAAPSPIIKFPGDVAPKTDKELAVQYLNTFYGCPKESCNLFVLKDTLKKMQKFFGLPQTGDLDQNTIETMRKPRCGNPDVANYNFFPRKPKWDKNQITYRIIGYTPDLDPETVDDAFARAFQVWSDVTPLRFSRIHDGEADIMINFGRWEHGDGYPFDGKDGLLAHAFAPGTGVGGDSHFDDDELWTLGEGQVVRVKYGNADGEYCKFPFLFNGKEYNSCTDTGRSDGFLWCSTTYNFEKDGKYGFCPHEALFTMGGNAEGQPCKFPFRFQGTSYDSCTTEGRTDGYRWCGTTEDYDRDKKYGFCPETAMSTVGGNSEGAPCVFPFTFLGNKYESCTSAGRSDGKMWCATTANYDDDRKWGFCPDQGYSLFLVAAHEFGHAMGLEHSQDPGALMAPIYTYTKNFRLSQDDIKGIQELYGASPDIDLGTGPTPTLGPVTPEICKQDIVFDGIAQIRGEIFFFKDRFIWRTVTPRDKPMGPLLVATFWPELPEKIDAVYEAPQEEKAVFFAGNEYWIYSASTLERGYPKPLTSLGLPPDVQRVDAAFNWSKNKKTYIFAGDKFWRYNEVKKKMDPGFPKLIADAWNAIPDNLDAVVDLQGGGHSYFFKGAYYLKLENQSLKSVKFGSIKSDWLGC
UniProt P51955: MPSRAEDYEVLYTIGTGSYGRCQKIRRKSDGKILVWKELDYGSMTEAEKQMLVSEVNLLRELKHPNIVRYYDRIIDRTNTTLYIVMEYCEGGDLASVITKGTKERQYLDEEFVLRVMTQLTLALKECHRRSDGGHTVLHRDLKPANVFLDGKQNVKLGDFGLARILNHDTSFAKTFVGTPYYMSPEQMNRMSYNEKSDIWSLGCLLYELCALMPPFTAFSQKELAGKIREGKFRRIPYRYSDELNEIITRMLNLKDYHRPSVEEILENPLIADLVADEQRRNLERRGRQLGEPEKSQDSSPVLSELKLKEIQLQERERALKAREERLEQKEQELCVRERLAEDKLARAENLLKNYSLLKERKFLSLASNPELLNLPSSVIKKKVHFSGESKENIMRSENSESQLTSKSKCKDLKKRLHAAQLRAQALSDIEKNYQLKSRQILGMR
UniProt P28827, whole entry, looked up: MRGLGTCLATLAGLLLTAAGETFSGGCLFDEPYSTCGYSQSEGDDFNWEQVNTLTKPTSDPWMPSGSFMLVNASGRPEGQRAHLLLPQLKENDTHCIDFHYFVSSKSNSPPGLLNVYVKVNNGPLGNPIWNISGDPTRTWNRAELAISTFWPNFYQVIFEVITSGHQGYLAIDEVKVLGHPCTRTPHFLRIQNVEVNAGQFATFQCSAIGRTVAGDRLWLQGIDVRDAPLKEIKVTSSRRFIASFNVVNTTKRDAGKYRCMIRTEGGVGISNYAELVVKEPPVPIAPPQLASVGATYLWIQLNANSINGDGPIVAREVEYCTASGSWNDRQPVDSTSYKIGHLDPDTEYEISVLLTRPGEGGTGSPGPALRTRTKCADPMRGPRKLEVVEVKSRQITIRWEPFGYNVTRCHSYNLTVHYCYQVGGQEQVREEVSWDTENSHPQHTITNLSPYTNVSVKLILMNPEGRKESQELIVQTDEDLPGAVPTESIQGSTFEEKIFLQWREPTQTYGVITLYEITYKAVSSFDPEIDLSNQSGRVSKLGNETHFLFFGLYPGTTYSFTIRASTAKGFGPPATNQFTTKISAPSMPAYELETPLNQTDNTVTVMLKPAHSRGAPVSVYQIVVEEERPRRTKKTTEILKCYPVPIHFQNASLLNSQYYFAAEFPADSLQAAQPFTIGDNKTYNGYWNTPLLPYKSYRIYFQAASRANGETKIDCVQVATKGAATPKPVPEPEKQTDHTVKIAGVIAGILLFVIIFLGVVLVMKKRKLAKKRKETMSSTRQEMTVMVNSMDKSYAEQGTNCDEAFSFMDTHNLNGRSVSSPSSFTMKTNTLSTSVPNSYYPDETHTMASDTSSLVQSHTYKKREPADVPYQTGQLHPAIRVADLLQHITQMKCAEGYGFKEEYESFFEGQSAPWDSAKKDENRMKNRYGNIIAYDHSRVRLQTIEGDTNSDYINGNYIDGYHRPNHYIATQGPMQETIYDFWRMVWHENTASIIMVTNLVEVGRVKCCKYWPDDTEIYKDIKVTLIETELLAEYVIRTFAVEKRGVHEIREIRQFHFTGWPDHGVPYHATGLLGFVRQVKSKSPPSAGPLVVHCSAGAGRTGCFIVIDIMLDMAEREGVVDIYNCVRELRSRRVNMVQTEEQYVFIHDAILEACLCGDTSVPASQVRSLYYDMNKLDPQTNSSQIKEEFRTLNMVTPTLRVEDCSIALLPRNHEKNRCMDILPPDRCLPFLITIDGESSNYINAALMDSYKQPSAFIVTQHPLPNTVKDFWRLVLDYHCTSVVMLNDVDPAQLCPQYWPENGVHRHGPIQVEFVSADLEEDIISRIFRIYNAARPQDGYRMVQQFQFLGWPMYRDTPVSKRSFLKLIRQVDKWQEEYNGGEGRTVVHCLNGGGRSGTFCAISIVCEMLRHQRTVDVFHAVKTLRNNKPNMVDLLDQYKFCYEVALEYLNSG
UniProt P17948, whole entry, looked up: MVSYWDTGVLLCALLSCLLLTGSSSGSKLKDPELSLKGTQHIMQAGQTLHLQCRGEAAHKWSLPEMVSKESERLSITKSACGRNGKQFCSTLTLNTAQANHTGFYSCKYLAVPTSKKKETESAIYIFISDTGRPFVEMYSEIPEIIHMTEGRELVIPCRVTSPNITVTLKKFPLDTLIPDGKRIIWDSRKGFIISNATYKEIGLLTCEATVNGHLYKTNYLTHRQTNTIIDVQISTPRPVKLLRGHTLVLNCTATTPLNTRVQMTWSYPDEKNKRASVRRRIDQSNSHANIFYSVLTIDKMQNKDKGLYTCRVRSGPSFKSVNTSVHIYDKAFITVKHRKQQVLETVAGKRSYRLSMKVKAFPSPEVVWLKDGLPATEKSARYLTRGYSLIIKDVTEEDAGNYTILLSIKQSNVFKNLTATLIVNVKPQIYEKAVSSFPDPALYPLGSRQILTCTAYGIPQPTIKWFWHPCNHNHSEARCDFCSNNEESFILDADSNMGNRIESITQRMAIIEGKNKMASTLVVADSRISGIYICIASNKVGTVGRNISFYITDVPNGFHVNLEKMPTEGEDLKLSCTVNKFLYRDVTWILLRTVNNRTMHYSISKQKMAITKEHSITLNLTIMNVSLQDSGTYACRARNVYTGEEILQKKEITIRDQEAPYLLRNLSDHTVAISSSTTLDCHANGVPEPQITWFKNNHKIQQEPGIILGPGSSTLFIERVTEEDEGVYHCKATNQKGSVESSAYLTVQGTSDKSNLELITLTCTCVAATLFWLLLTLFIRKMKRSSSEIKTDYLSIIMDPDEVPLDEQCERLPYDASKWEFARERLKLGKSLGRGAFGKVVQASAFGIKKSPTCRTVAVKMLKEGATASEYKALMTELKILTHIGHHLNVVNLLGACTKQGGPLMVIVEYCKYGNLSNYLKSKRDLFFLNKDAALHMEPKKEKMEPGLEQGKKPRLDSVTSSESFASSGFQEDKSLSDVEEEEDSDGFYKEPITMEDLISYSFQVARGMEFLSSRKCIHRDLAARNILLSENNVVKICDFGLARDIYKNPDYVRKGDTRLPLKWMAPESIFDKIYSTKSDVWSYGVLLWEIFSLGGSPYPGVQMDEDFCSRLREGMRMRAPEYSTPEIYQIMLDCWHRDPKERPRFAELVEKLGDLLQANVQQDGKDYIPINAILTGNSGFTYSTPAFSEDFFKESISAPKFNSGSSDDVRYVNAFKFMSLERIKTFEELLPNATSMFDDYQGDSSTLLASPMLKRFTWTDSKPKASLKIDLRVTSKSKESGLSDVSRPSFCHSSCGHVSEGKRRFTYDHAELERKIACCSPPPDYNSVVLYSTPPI
UniProt P08659, whole entry, looked up: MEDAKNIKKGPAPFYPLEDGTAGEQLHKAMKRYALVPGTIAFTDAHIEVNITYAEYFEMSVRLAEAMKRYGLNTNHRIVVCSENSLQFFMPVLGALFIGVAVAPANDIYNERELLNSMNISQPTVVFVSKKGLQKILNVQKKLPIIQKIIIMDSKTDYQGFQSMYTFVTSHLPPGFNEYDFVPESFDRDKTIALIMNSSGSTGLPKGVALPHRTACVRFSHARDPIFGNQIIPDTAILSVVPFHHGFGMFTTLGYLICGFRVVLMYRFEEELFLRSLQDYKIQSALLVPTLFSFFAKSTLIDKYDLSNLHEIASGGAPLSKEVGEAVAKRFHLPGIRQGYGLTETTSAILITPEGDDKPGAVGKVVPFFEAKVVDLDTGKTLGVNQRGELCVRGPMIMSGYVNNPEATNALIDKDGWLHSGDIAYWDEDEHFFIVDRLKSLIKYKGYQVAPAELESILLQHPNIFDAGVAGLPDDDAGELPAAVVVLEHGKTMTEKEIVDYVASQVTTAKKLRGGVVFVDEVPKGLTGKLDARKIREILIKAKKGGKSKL

Columns and labels:
[1] = read-out: Transforming growth factor beta 1 (TGFb1), TGFB1 (gene 7040); experiment: BSK_BE3C_TGFb1: BioMAP Diversity Plus: BE3C Assay for Transforming growth factor beta 1 (TGFb1) Biomarker Activity (AID 2283036; active = hit-call score of the fitted dose curve at least 0.9, where 1 is the maximum; inactive = score below 0.9;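 also: TGF-b1 protein level measured by ELISA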); settings: actives raise or lower the signal; primary human bronchial epithelial cells
Procedure, shortened: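 ELISA readout of TGF-b1 from human lung bronchial epithelial primary cells, taken 24 h post-treatment. Gain or loss of signal fitted relative to DMSO baseline, with parallel SRB staining for overt cytotoxicity.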

[2] = read-out: Cyclin D1 (CCND1), CCND1 (gene 595); experiment: LTEA_HepaRG_CCND1: Life Technologies and Expression Analysis (LTEA) Assay for Cyclin D1 (CCND1) using HepaRG (AID 2283451; active = hit-call score of the fitted dose curve at least 0.9, where 1 is the maximum; inactive = score below 0.9); settings: actives raise or lower the signal; mRNA level, 48 h
Procedure, shortened: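 Human liver HepaRG line; 48 h dosing, 8 conc. ≤100 uM, 0.5% DMSO; TaqMan qRT-PCR mRNA, 3 housekeeping genes; bidirectional curve fit vs DMSO.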

[3] = read-out: solute carrier (SLC22A1), SLC22A1 (gene 6580); experiment: LTEA_HepaRG_SLC22A1: Life Technologies and Expression Analysis (LTEA) Assay for solute carrier (SLC22A1) using HepaRG (AID 2283524; active = hit-call score of the fitted dose curve at least 0.9, where 1 is the maximum; inactive = score below 0.9); settings: actives raise or lower the signal; mRNA level, 48 h
Procedure, shortened: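 qRT-PCR readout (TaqMan, Fluidigm arrays) of SLC22A1 transcript, normalized to three housekeeping genes; bidirectional curve fit relative to 0.5% DMSO vehicle. Differentiated human HepaRG cells, 48 h chemical exposure, top concentration 100 uM, half-log steps, eight points.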

[4] = read-out: Tumor necrosis factor receptor 1 (TNFRSF1A), TNFRSF1A (gene 7132); experiment: LTEA_HepaRG_TNFRSF1A: Life Technologies and Expression Analysis (LTEA) Assay for Tumor necrosis factor receptor 1 (TNFRSF1A) using HepaRG (AID 2283535; active = hit-call score of the fitted dose curve at least 0.9, where 1 is the maximum; inactive = score below 0.9); settings: actives raise or lower the signal; mRNA level, 48 h
Procedure, shortened: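 Expression of TNFRSF1A in human HepaRG liver cells was measured by qRT-PCR 48 h after chemical dosing (maximum 100 uM). Bidirectional curve fitting used 0.5% DMSO as baseline.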

[5] = Tanguay_ZF_120hpf_OTIC_legacy: (Legacy) Oregon State University Tanguay Lab 120 Hour Post-fertilization zebrafish Assay for Otic Vesicle Malformation (AID 2283639)
[6] = read-out: Matrix Metallopeptidase 1 (MMP1), MMP1 (gene 4312); experiment: BSK_BE3C_MMP1: BioMAP Diversity Plus: BE3C Assay for Matrix Metallopeptidase 1 (MMP1) Biomarker Activity (AID 2283024; active = hit-call score of the fitted dose curve at least 0.9, where 1 is the maximum; inactive = score below 0.9); settings: actives raise or lower the signal; primary human bronchial epithelial cells
Procedure, shortened: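 ELISA measurement of MMP-1 after 24 h compound exposure of primary human bronchial epithelial cells. Changes in either direction fitted relative to DMSO; parallel SRB staining checked overt cytotoxicity.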

[7] = read-out: Interleukin-8 (IL8), CXCL8 (gene 3576); experiment: BSK_CASM3C_IL8: BioMAP Diversity Plus: CASM3C Assay for Interleukin-8 (IL8) Biomarker Activity (AID 2283042; active = hit-call score of the fitted dose curve at least 0.9, where 1 is the maximum; inactive = score below 0.9;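 also: IL-8 protein level quantified by ELISA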); settings: actives raise or lower the signal; primary human coronary artery smooth muscle cells
[8] = BSK_CASM3C_Proliferation: Cell Proliferation Assessment in the BioMAP Diversity Plus: CASM3C Assay (AID 2283047; active = hit-call score of the fitted dose curve at least 0.9, where 1 is the maximum; inactive = score below 0.9;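 also: sulforhodamine B total protein stain as relative cell number at 560 nm; sub-confluent cells exposed 48 h before staining; fitted both ways against DMSO so gain or loss of cell number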); settings: primary human coronary artery smooth muscle cells
[9] = target: human Epidermal Growth Factor Receptor (EGFR), EGFR (gene 1956) (UniProt P00533); experiment: NVS_ENZ_hEGFR: NovaScreen (NVS) Enzymatic Assay for human Epidermal Growth Factor Receptor (EGFR) (AID 2283151)
Procedure, shortened: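 Cell-free kinase assay, fluorescence plus electrophoretic mobility shift separating substrate and product, read 1 hour after dosing; loss of signal vs DMSO. Duplicate screen at 25 uM, then concentration-response to 50 uM.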

[10] = target: human Matrix Metalloproteinase-2 (MMP2), MMP2 (gene 4313) (UniProt P08253); experiment: NVS_ENZ_hMMP2: NovaScreen (NVS) Enzymatic Assay for human Matrix Metalloproteinase-2 (MMP2) (AID 2283184)
Procedure, shortened: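 Compounds first screened in duplicate at a single 25 uM, with actives followed up in concentration series. Recombinant human MMP2 cleaves a fluorogenic substrate; fluorescence taken at 1 h, inhibition fitted relative to DMSO.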

[11] = target: human NIMA (Never In Mitosis Gene A)-Related Kinase 2 (NEK2), NEK2 (gene 4751) (UniProt P51955); experiment: NVS_ENZ_hNEK2: NovaScreen (NVS) Enzymatic Assay for human NIMA (Never In Mitosis Gene A)-Related Kinase 2 (NEK2) (AID 2283188)
Description: NVS_ENZ_hNEK2 is a biochemical, single-readout assay that uses extracted gene-proteins in a cell-free assay. Measurements were taken 1 hour after chemical dosing in a 384-well plate.NVS_ENZ_hNEK2 is one of one assay component(s) measured or calculated from the NVS_ENZ_hNEK2 assay. It is designed to make measurements of enzyme activity, a form of enzyme reporter, as detected with fluorescence intensity signals by Fluorescence and electrophoretic mobility shift technology.Data from the assay component NVS_ENZ_hNEK2 was analyzed into 1 assay endpoint. This assay endpoint, NVS_ENZ_hNEK2, was analyzed in the positive analysis fitting direction relative to DMSO as the negative control and baseline of activity. Using a type of enzyme reporter, loss-of-signal activity can be used to understand changes in the enzymatic activity as they relate to the gene NEK2. Furthermore, this assay endpoint can be referred to as a primary readout, because this assay has produced multiple assay endpoints where this one serves a enzymatic activity function. To generalize the intended target to other relatable targets, this assay endpoint is annotated to the kinase intended target family, where the subfamily is serine/threonine kinase. […]

[12] = target: Tyrosine-protein phosphatase non-receptor type 11 (Homo sapiens) (UniProt Q06124); experiment: NVS_ENZ_hPTPN11: NovaScreen (NVS) Enzymatic Assay for human Protein Tyrosine Phosphatase Non-receptor Type 11 (PTPN11) (AID 2283202)
Procedure, shortened: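 Compounds first tested in duplicate at 25 uM; those reaching ~30% inhibition rerun in singleton concentration-response, top 50 uM. Phosphatase activity measured after 0.5 h by fluorescence with mobility-shift separation, relative to DMSO.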

[13] = target: human Protein Tyrosine Phosphatase Receptor Type M (PTPRM), PTPRM (gene 5797) (UniProt P28827); experiment: NVS_ENZ_hPTPRM: NovaScreen (NVS) Enzymatic Assay for human Protein Tyrosine Phosphatase Receptor Type M (PTPRM) (AID 2283215)
[14] = target: human Vascular Endothelial Growth Factor Receptor 1 (VEGFR1), FLT1 (gene 2321) (UniProt P17948); experiment: NVS_ENZ_hVEGFR1: NovaScreen (NVS) Enzymatic Assay for human Vascular Endothelial Growth Factor Receptor 1 (VEGFR1) (AID 2283226)
[15] = test system: guinea pig Leukotriene B4 Receptor (LTB4), gene 100379538; experiment: NVS_GPCR_gLTB4: NovaScreen (NVS) G Protein-Coupled Receptor Assay for guinea pig Leukotriene B4 Receptor (LTB4) (AID 2283247)
Procedure, shortened: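 Membranes from guinea pig spleen incubated 2 h with radioligand and compound; bound counts measured by filtration and scintillation. Screened first at 25 uM in duplicate, then actives titrated to a 50 uM top concentration relative to DMSO.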

[16] = read-out: Pro-epidermal growth factor (Homo sapiens) (UniProt P01133); experiment: LTEA_HepaRG_EGF: Life Technologies and Expression Analysis (LTEA) Assay for Epidermal growth factor (EGF) using HepaRG (AID 2283489; active = hit-call score of the fitted dose curve at least 0.9, where 1 is the maximum; inactive = score below 0.9); settings: actives raise or lower the signal; mRNA level, 48 h
Procedure, shortened: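 EGF expression changes in human HepaRG cells are scored by bidirectional fitting relative to 0.5% DMSO controls. Chemicals are tested at eight half-log concentrations up to 100 uM for 48 h in serum-free induction medium.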

MYC, MYC (gene 4609) = experiment: LTEA_HepaRG_MYC: Life Technologies and Expression Analysis (LTEA) Assay for MYC using HepaRG (AID 2283518; active = hit-call score of the fitted dose curve at least 0.9, where 1 is the maximum; inactive = score below 0.9); settings: actives raise or lower the signal; mRNA level, 48 h
Procedure, shortened: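 Cells are thawed, plated and cultured 48 h, then treated for 48 h with test chemicals (eight half-log concentrations from 100 uM, 0.5% DMSO vehicle). RNA is isolated and MYC expression quantified by qRT-PCR against three housekeeping genes.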

[17] = target: Luciferin 4-monooxygenase (Photinus pyralis) (UniProt P08659); experiment: CCTE_Simmons_QuantiLum_inhib_2: CCTE's Firefly Luciferase Inhibition Assay, Simmons Lab (AID 2283767)
Procedure, shortened: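 Eight test concentrations, 5 nM up to 87.5 uM final, preincubated 30min at 37C in the dark with purified luciferase (0.5% DMSO final). Detection reagent (150uM D-luciferin, 147uM dATP, 75uM CoA, pH 7.8) injected per well before kinetic luminescence read; three replicates.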

[18] = ACEA_AR_antagonist_AUC_viability: ACEA Biosciences xCELLigence Real-Time Cell Analysis on Androgen Receptor Antagonism for Viability (AID 2283776);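 also: 22Rv1 human prostate cancer cells growing on impedance electrode plates; area under impedance growth curve at 80 h after dosing as viability; hits lower the growth signal relative to DMSO meaning cytotoxicity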
Procedure, shortened: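 Impedance read-out (RT-CES): area under growth curve at 80 h post-dose, loss of signal scored vs DMSO baseline. 22Rv1 cells; 8-pt 1:4 series, top 100 uM final, ≤0.5% DMSO; biological duplicate.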

[19] = CCTE_Simmons_MITO_viability: CellTiter-Glo Viability Assessment for CCTE's HepG2 Seahorse XF Respirometric Screening Assay [post-hoc], Simmons Lab (AID 2284007)
Procedure, shortened: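 Luciferase-coupled ATP read-out after the Seahorse run: HepG2 cells treated 90 minutes with test chemical, 7-point series of 125 nM–100 uM final, in triplicate biological runs. Vehicle DMSO; dichlone as positive control over 8 concentrations.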

| Compound | outcome [1] | outcome [2] | outcome [3] | outcome [4] | outcome [5] | outcome [6] | outcome [7] | outcome [8] | AC50 [9] | outcome [10] | AC50 [11] | AC50 [12] | AC50 [13] | AC50 [14] | AC50 [15] | outcome [16] | AC50 (MYC, MYC (gene 4609)) | outcome [17] | outcome [18] | outcome [19] |
| --- | --- | --- | --- | --- | --- | --- | --- | --- | --- | --- | --- | --- | --- | --- | --- | --- | --- | --- | --- | --- |
| COc1ccc(O)c(C(C)(C)C)c1 | inactive | inactive | inactive | inactive | inactive |  |  |  |  |  |  |  |  |  |  |  |  |  |  |  |
| CN(C)[C@@H]1C(=O)C(C(N)=O)=C(O)[C@@]2(O)C(=O)C3=C(O)c4c(O)cccc4[C@@](C)(O)[C@H]3[C@H](O)[C@@H]12 |  |  |  |  |  | inactive | inactive | inactive | active: 8.13 µM | inactive | active: 16.7 µM | active: 4.28 µM | active: 17 µM | active: 17.5 µM | active: 6.63 µM | inactive | active: 23.1 µM | inactive | inactive | inactive |
